Measured values as given in publication PMC5996148.
Values joined by “and” are separate entries in the source; they are usually repeats but may differ in a detail not shown here. Equal values may be shown once. The list shows a part of the results. For some assays here: The exact form of the protein is not confirmed.

By UniProt entry, the sequences of proteins in these tests, tags left out.
UniProt Q9GZZ9, whole entry: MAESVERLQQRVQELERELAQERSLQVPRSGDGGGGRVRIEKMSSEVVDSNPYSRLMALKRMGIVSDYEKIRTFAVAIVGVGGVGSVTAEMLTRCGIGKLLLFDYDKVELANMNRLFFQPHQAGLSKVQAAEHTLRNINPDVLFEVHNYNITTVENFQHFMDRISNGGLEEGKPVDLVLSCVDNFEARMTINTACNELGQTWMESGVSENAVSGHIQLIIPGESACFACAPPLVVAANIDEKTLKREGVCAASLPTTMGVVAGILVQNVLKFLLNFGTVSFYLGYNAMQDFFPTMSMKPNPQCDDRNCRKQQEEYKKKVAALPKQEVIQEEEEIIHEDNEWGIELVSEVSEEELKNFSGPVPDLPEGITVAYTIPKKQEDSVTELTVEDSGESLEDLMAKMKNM

What was measured:
Test in all cases: protein microarray (ProtoArray v5.0), streptavidin-Alexa Fluor 647
Conditions in all cases: 3'-biotin; 20 mM Tris (pH 7.5), 5 mM MgCl2, 100 mM KCl, 0.1% Tween-20, A/T-rich and random oligonucleotide blockers; temperature not stated; high values mean tight binding
[1] = system: Tumor protein D53 (human)
[2] = system: Tumor suppressor candidate 3 (human)
[3] = system: UBADC1 (human)
[4] = molecular target: UBE1DC1 (UniProt Q9GZZ9)
[5] = system: UBE1L2 (human)
[6] = system: UBE2C (human)
[7] = system: UBE2L6 (human)
[8] = system: UBE2Z (human)
[9] = system: UBE3C (human)
[10] = system: UBL4A (human)
[11] = system: UBQLN1 (human)
[12] = system: UBQLN2 (human)
[13] = system: UBTD2 (human)
[14] = system: UBX domain-containing protein 7 (human)
[15] = system: UCHL1 (human)
[16] = system: UCHL3 (human)
[17] = system: UCHL5 (human)
[18] = system: UGP2 (human)
[19] = system: ULK4 (human)
[20] = system: UMPS (human)

## GGTGACAGGGGTATGGGGAGGGG [G4-2 biotinylated (Ct1)]
[1]
  binding signal: -0.378 z-score
[2]
  binding signal: -0.372 z-score
[3]
  binding signal: -0.39 z-score
[4]
  binding signal: -0.394 z-score
[5]
  binding signal: -0.374 z-score
[6]
  binding signal: -0.409 z-score and -0.4 z-score
[7]
  binding signal: -0.384 z-score
[8]
  binding signal: -0.367 z-score
[9]
  binding signal: -0.37 z-score
[10]
  binding signal: -0.393 z-score
[11]
  binding signal: -0.399 z-score
[12]
  binding signal: -0.402 z-score
[13]
  binding signal: -0.383 z-score
[14]
  binding signal: -0.396 z-score
[15]
  binding signal: -0.389 z-score
[16]
  binding signal: -0.396 z-score
[17]
  binding signal: -0.399 z-score and -0.382 z-score
[18]
  binding signal: -0.39 z-score
[19]
  binding signal: -0.357 z-score
[20]
  binding signal: -0.375 z-score
